Assay results from PMC9295074.
These are yes or no findings as the source states them, for the method shown. Binding seen in cells or lysates may run through a third protein. Some results given as binding are weak or reduced against the parent protein; the word gives no strength.

By UniProt entry, the sequences of proteins in these tests, tags left out.
UniProt Q92754: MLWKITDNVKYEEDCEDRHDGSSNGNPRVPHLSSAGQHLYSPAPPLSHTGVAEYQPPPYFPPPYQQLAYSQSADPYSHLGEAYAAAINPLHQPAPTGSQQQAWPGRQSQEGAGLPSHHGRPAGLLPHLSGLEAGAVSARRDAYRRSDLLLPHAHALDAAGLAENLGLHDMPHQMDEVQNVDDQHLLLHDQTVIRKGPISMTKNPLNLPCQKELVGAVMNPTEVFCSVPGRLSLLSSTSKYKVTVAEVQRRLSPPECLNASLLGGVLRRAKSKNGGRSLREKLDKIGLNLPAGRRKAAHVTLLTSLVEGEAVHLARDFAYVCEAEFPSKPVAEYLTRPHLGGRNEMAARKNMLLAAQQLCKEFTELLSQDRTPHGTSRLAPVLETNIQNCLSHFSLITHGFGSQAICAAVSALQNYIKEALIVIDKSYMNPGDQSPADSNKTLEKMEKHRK
UniProt O94972: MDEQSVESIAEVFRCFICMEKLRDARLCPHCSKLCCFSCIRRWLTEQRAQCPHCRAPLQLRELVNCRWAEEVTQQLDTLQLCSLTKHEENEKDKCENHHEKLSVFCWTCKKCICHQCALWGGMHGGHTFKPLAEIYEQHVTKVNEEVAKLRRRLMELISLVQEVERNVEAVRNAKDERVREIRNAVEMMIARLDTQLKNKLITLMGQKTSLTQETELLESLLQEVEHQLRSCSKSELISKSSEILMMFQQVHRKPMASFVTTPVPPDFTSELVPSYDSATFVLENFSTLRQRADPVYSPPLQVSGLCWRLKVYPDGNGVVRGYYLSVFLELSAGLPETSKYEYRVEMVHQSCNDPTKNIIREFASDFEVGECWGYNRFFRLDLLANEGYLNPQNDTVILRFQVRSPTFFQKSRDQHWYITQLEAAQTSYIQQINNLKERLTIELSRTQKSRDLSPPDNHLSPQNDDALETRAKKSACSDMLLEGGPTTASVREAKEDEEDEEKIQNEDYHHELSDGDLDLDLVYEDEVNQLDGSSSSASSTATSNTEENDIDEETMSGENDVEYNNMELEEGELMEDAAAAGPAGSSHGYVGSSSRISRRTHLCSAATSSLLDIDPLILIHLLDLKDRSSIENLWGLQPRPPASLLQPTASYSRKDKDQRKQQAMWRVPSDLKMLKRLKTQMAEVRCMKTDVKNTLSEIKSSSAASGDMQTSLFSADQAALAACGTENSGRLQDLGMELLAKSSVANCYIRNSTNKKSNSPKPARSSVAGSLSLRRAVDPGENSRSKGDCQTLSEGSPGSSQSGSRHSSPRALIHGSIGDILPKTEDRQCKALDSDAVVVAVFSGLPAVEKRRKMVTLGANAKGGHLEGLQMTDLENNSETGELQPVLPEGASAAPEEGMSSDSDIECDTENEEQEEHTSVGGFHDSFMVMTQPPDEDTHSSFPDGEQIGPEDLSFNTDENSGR

Biological target: Activator Protein 2 gamma (AP-2γ) (human (endogenous in MCF-7 and BT474)) (UniProt Q92754)
Assay: co-IP; nuclear AP-2γ of MCF-7 or BT474 cells immunoprecipitated with 5 µg AP-2γ antibody on magnetic beads overnight at 4 °C, washed with RIPA lysis buffer; TRIM37 detected by immunoblotting; IgG as negative control; lysates made as in the ChIP method

Question: Which binding does the source give for “Tripartite motif-containing 37 (TRIM37) (from UniProt O94972 1-964)” here?
Answer: Its binding is “binds”.
